According to publication PMC5123071:
Results are given in words; binding and its absence hold for the method and conditions named.

Chains of the proteins cited; added tags and fusions are not shown. Lines headed by an entry give the natural chain unless they say otherwise; changes in a name come on top.
UniProt O14727: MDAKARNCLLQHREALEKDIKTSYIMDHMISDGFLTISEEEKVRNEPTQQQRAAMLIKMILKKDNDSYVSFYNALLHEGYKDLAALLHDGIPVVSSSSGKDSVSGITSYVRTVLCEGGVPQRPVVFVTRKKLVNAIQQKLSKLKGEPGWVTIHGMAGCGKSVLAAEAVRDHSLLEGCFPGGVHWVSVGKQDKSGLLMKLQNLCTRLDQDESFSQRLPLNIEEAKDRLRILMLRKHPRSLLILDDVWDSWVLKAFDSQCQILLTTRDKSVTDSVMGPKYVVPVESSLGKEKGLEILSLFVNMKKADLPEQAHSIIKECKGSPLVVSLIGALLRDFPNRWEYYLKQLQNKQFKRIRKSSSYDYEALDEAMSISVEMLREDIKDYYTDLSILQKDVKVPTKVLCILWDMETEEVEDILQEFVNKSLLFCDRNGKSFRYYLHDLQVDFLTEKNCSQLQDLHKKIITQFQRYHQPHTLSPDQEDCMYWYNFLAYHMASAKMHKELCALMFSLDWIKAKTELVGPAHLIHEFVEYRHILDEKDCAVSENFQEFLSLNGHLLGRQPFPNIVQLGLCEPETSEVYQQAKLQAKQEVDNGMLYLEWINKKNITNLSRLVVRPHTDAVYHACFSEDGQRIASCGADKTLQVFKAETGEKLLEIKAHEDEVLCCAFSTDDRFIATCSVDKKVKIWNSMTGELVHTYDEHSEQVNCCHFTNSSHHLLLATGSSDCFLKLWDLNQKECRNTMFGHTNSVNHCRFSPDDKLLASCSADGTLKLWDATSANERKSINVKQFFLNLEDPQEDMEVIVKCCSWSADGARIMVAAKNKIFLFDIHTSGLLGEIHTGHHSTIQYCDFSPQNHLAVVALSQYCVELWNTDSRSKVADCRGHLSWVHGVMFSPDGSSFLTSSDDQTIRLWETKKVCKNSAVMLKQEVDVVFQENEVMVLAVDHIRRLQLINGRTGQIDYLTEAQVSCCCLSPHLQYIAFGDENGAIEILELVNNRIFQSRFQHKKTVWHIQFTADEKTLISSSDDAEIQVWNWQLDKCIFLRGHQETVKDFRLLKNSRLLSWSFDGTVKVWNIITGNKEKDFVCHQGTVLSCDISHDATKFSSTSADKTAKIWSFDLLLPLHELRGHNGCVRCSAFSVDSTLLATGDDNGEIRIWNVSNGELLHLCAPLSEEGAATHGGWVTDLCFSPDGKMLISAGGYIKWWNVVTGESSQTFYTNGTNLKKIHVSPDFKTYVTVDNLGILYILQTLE

Target: recombinant full-length Apaf-1XL (UniProt O14727)
Test: SEC; as a2 but in the absence of Cc and dATP: Apaf-1 (300 nM) with C9 protein (200 nM); Superose-6 gel filtration, immunoblot; both purified

recombinant full-length Apaf-1XL (from UniProt O14727-1 1-1248)
binding: no binding (condition: in the absence of Cc and dATP)
